Data as given in paper PMC9502983.

Target: HA-tagged N-terminal CBP (aa1–494) (silkworm)
Experiment: co-IP; BmE cells cotransfected with HA-CBP (aa1-494) and FLAG-EcR, treated with 2.5 uM 20E or DMSO for 12 h; lysis buffer 25 mM Tris pH 8, 27.5 mM NaCl, 20 mM KCl, 0.5% NP40, with or without 20E; IP with anti-HA overnight at 4 °C, protein A/G Dynabeads; Western blot with anti-FLAG, anti-HA …

- binding: binds
B1: FLAG-tagged EcR (receptor, UniProt P49881 1-606)
chain: MRVENVDNVSFALNGRADEWCMSVETRLDSLVREKSEVKAYVGGCPSVITDAGAYDALFDMRRRWSNNGGFPLRMLEESSSEVTSSSALGLPPAMVMSPESLASPEYRALELWSYDDGITYNTAQSLLGACNMQQQQLQPQQPHPAPPTLPTMPLPMPPTTPKSENESMSSGREELSPASSINGCSADADARRQKKGPAPRQQEELCLVCGDRASGYHYNALTCEGCKGFFRRSVTKNAVYICKFGHACEMDMYMRRKCQECRLKKCLAVGMRPECVIQEPSKNKDRQRQKKDKGILLPVSTTTVEDHMPPIMQCDPPPPEAARIHEVVPRYLSEKLMEQNRQKNIPPLSANQKSLIARLVWYQEGYEQPSDEDLKRVTQTWQSDEEDEESDLPFRQITEMTILTVQLIVEFAKGLPGFSKISQSDQITLLKASSSEVMMLRVARRYDAASDSVLFANNKAYTRDNYRQGGMAYVIEDLLHFCRCMFAMGMDNVHFALLTAIVIFSDRPGLEQPSLVEEIQRYYLNTLRIYIINQNSASSRCAVIYGRILSVLTELRTLGTQNSNMCISLKLKNRKLPPFLEEIWDVAEVATTHPTVLPPTNPVVL

Results are given in words; binding and its absence hold for the method and conditions named. In cells and extracts the contact can be indirect. A result given as binding can be weak or reduced; the word gives no strength. Sequences can lack the tags named with a protein.
